Laboratory results: PMC8100126
Results are given in words; binding and its absence hold for the method and conditions named. In cells and extracts the contact can be indirect. Some results given as binding are weak or reduced against the parent protein; the word gives no strength.

By UniProt entry, the sequences of proteins in these tests, tags left out.
UniProt P48431: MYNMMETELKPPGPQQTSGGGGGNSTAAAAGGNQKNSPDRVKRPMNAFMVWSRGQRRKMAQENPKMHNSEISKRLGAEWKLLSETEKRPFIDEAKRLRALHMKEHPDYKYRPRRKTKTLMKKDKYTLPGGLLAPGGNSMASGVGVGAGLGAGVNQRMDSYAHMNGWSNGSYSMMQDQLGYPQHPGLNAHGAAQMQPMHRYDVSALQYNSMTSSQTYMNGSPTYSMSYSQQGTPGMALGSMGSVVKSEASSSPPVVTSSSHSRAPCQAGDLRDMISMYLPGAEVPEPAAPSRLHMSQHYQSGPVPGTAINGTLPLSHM
UniProt P35222: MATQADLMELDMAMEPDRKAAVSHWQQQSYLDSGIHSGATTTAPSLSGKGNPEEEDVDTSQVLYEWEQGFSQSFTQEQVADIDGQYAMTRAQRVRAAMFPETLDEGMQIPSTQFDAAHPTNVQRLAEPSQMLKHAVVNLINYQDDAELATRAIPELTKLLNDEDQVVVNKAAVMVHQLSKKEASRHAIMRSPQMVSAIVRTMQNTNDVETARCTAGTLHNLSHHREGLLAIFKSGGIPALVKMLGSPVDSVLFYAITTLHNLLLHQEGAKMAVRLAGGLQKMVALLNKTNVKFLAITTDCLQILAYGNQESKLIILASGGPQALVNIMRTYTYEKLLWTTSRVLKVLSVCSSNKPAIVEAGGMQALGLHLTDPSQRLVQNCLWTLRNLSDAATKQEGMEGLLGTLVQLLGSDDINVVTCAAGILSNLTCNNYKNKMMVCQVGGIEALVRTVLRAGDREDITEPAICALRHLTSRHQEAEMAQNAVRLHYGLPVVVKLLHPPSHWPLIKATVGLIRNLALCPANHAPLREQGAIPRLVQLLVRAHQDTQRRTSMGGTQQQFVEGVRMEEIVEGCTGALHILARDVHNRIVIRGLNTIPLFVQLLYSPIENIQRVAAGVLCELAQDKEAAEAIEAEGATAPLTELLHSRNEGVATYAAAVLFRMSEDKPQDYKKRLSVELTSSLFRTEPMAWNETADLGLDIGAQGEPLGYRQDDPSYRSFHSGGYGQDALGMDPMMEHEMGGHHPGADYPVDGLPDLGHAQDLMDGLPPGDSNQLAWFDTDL

Columns and labels:
[1] = biological target: Sex-determining region Y-box2 (SOX2) (human (endogenous in SW480 and SW620)) (UniProt P48431); experiment: co-IP; endogenous proteins; 2 μg anti-SOX2 or anti-β-catenin antibody added to 1 mg protein lysate (cytoplasmic and nuclear fractions of SW480 and SW620 cells), overnight at 4 °C; protein A/G beads; non-specific IgG as negative control; Western blot
[2] = biological target: β-catenin (human (endogenous in SW480 and SW620)) (UniProt P35222); experiment: as above

Row | binding [1] | binding [2] | Substance
1 | binds | – | β-catenin (from UniProt P35222 1-781)
2 | – | binds | Sex-determining region Y-box2 (SOX2) (from UniProt P48431 1-317)
